The target of experiment [1] is recombinant Human BDCA2 (human) (UniProt Q8WTT0). The experiment can be described thus: SPR. (In general: Surface plasmon resonance follows binding to a sensor surface in real time, without labels.)
Experiment [2] has as its target cynomolgus monkey BDCA2 expressed on 293F cells (cynomolgus monkey). The experiment can be described thus: FACS on 293F-cynoBDCA2 cells.
The target of experiment [3] is T1, human BDCA2 expressed on CHOK1 cells (human, UniProt Q8WTT0 1-213).
T1 construct: whole, on cells; also called CHOK1-hBDCA2; CHOK1-humanBDCA2
T1 sequence (looked up): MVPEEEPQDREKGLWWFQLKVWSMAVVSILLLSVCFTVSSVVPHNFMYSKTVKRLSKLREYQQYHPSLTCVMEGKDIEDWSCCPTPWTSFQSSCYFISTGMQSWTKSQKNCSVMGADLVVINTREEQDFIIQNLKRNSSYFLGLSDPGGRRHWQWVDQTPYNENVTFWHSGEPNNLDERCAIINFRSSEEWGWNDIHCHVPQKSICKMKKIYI
In words: FACS on CHOK1-humanBDCA2 cells.

Results are given in words; binding and its absence hold for the method and conditions named. Some binding calls cover weakened binding; strength is not graded here.

B1: Hu033-03 (antibody, human IgG1, kappa, V domains shown)
VH: EVQLVESGGGLVKPGGSLRLSCAASGFTFSSYGMSWVRQAPGKGLEWVSTISSGDSYTYYPDSVKGRFTISRDNAKNSLYLQMNSLRAEDTAVYYCARQIYYDYAYYFDFWGQGTTVTVSS
VL: DIVLTQSPASLAVSPGQRATITCRASESVSFRTSHLMHWYQQKPGQPPKLLIYGASNLESGVPARFSGSGSETDFTLTINPVEAEDTANYFCQQSIEDPPTFGGGTKVEIKR
notes: Humanized IgG1; also called Hu033-03(BM3)
B1: the binding result in experiment [1] and in experiment [2] was “binds” each time.

B2: Hu033-20 (antibody, human IgG1, kappa, V domains shown)
VH: EVQLVESGGGLVKPGGSLRLSCAASGFTFRSYGMSWVRQAPGKRLEWVSTISSGDSYTYYPDSVKGRFTISRDNAKNSLYLQMNSLKAEDTAVYYCARQIYYDYAYYFDFWGQGTTVTVSS
VL: DIVMTQSPDSLAVSLGERATINCRASESVSFRTSHLMHWYQQKPGQPPKLLIYGASNLESGVPDRFSGSGSGTDFTLTISSLQAEDVAVYYCQQSIEDPPTFGGGTKVEIKR
For the molecule B2, the binding entry in experiment [1] and in experiment [2] was “binds” each time.

B3: Hu005-04 (antibody, human IgG1, kappa, V domains shown)
VH: QVQLQQSGPGLVKPSETLSLTCTVSGGSLTNYGVHWIRQPPGKGLEWIGVIWSGESTDYDAAFISRVTISKDNSKNQVSLKLSSVTAADTAVYYCARRRSHYYGYVMDYWGQGTTVTVSS
VL: DIVLTQSPASLAVSPGQRATITCKASQSIDYDAIGYLNWYQQKPGQPPKLLIYAASNLESGVPARFSGSGSGTDFTLTINPVEANDTANYYCQQSNEDPPTFGQGTKLEIKR
With B3, the binding result in experiment [3] and in experiment [2] was “binds” throughout.

Values taken from patent US20260216362A1, “ANTI-BDCA2 ANTIBODY-DRUG CONJUGATE AND USE THEREOF” (DUALITY BIOLOGICS (SHANGHAI) CO., LTD., priority 2022, published 2026).
